One molecule from US20260042860A1 can be followed below.

No constants are given. Whether binding was seen depends on the method and setting. Some results given as binding are weak or reduced against the parent protein; the word gives no strength. For some assays here: Sequences can lack the tags named with a protein.

Experiment [1] concerns the target T1, CD24 on CD24(+) DSRCT cell lines (BER, BER-luc, SK-DSRCT-2-luc) (human).
T1 sequence: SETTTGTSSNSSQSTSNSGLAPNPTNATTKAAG
Description: flow cytometry on DSRCT cell line BER. For orientation: Flow cytometry measures light scatter and fluorescence of single cells or particles in a stream.

Experiment [2] concerns the target T2, human CD24 (human).
T2 sequence: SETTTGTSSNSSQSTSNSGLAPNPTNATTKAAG
As to the kind of experiment: SPR, Biacore. For orientation: SPR reads the build-up and loss of mass on a sensor chip optically.

B1: murine CD24×CD3 (huOKT3) BsAb (BC303) (bispecific antibody, V domains shown)
V domain 1: DVHLQESGPDLVKPSQSLSLTCTVTGYSITSGYTWHWIRQFPGNTVEWMGYIQYTGSTRYNPALRGRLSISRDTSKNQFFLQLISVTTADTGTYFCARGTTASFDYWGQGTTLTVAS
V domain 2: DIVMSQSPSSLNVSVGEKVTMRCRSSQSLLYSSDQKNYLTWYQQKPGQSPKLLISWASTRASGVPDRFTGSGSGTDFTLTISSVKAEDLGVYYCQQYFIYPLTFGVGTKLGLK
Regarding B1, the binding entry in experiment [1] and in experiment [2] was “binds” in each case.
